According to the supplement of paper PMC4635364:
The list shows a part of the results. Repeats in this data set agree poorly, so a single value says little.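 ReNCell VM, a human fetal ventral-midbrain neural progenitor line, was differentiated without mitogens. Blinded raters scored images stained for doublecortin (early neurons) or tyrosine hydroxylase (dopaminergic neurons) against untreated wells (0 = no change). Scores were averaged across repeats and both raters, and compounds averaging 2 or more were selected as hits for retesting.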

The compounds below were run on ReNCell VM (assay: dopaminergic neuron differentiation score (TH+ cell fraction vs untreated, manual image score) (score (0 to 3)); higher = more TH+ dopaminergic neuron differentiation). Conditions: library: Tocriscreen; 2 uM; 4 weeks; BDNF 10 ng/ml + GDNF 10 ng/ml.

| Structure (SMILES) | dopaminergic neuron differentiation score |
| --- | --- |
| CCS(=O)(=O)N1CCC[C@@H]2CN3CCc4cc(OC)ccc4[C@@H]3C[C@@H]21 | inactive: 0 |
| C/C=C1\C(=O)C[C@H]2[C@@H]3CCC4=CC(=O)CC[C@]4(C)[C@H]3CC[C@]12C [Guggulsterone] | inactive: 0 |
| NC(C(=O)O)c1cc(O)cc(O)c1 (racemic) | inactive: 1 |
| NC(=O)N1C(=O)/C(=C(\O)c2cccs2)c2cc(Cl)ccc21 [Tenidap] | inactive: 1 |
| N#C/C(=C\c1ccc(O)c(O)c1)C(=O)NCCCc1ccccc1 | inactive: 0 |
